Laboratory results taken from PMC3169596.
For some assays here: No signal at the amounts used counts as a negative. For some assays here: The exact form of at least one protein or probe is not confirmed. For some assays here: The comparison behind a weaker result is the experiment's own reference, which may not be listed here. For some assays here: At least one verdict rests on a figure or table, not on a statement of the authors. For some assays here: Where a protein sequence is shown, tags need not be part of it.

Protein sequences, listed by entry. Tags and fused reporters are not part of them. Residues count along the entry.
UniProt P08047, whole entry: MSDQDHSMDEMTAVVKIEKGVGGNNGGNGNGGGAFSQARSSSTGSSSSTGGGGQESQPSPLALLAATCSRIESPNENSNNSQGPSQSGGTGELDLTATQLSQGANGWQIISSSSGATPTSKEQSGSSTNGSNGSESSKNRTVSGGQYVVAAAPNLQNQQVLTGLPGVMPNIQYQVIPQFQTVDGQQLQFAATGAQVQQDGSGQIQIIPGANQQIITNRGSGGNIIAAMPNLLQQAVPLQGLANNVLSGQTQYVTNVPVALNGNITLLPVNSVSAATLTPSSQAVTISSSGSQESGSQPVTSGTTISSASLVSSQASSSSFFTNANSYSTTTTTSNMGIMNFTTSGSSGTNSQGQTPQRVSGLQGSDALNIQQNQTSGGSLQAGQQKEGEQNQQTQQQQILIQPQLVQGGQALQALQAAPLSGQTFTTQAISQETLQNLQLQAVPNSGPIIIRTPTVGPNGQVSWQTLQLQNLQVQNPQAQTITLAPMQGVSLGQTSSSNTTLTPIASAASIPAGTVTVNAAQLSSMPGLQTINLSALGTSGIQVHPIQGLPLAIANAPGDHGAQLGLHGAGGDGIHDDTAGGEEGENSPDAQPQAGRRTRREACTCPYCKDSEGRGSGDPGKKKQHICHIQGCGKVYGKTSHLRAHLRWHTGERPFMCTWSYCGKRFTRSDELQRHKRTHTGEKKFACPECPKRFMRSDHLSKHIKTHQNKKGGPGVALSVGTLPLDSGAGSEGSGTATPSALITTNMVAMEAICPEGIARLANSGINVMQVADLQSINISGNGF
UniProt P02769, 25-607: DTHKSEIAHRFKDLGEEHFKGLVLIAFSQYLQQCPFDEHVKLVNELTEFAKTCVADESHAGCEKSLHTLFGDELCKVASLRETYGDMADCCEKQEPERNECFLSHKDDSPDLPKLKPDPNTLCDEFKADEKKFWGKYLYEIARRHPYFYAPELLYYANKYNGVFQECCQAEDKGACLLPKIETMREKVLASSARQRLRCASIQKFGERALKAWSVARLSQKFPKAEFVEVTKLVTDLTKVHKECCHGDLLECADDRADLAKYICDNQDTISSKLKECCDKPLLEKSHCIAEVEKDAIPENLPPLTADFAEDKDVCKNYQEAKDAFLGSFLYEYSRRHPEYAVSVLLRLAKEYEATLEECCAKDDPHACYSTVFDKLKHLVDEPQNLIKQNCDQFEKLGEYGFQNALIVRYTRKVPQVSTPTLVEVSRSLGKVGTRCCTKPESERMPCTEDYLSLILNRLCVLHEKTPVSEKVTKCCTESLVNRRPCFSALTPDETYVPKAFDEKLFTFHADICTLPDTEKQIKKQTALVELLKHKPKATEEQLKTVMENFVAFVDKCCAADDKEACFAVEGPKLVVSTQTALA

Assays:
[1] = target: T1, MAZ-GST (UniProt P56270); test: EMSA; conditions: EMSA: 20 mM Tris-HCl pH 8, 30 mM KCl, 1.5 mM MgCl2, 1 mM DTT, 8% glycerol, 5 mM NaF, 1 mM Na3VO4, 2.5 ng/ml poly[dI-dC], 30 min room temperature, recombinant protein, protein details: GST, label: 33P
T1 sequence (looked up, limits assumed): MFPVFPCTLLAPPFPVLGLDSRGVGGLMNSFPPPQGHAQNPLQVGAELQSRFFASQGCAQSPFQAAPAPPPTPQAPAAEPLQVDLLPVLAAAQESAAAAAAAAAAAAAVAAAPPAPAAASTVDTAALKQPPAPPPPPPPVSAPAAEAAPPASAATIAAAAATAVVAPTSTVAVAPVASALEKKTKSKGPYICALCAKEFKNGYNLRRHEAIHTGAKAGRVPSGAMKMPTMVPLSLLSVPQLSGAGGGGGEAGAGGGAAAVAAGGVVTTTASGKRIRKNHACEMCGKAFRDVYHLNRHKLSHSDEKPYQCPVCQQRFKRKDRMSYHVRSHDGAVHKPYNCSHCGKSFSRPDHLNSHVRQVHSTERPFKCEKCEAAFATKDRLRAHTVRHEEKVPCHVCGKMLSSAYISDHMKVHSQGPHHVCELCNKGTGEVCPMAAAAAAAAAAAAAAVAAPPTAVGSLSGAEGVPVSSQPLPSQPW

[2] = target: T1, MAZ-GST; test: competition with a labelled probe; conditions: 3 ug MAZ, 10 nM labelled qhras-1, 10- and 50-fold cold decoy, TINA (P) after nt 2 and after nt 19, EMSA: 20 mM Tris-HCl pH 8, 30 mM KCl, 1.5 mM MgCl2, 1 mM DTT, 8% glycerol, 5 mM NaF, 1 mM Na3VO4, 2.5 ng/ml poly[dI-dC], 30 min room temperature, recombinant protein, protein details: GST, synthetic backbone
[3] = target: Sp1-GST (UniProt P08047); test: EMSA; conditions: EMSA: 20 mM Tris-HCl pH 8, 30 mM KCl, 1.5 mM MgCl2, 1 mM DTT, 8% glycerol, 5 mM NaF, 1 mM Na3VO4, 2.5 ng/ml poly[dI-dC], 30 min room temperature, recombinant protein, protein details: GST, label: 33P
[4] = target: BSA (UniProt P02769); test: FRET melting; conditions: r = 10, no effect on melting, 50 mM KCl, 50 uM Zn acetate, FRET: 50 mM Tris-HCl pH 7.4, 50 mM KCl or 100 mM NaCl, commercial protein, label: 5' FAM, 3' TAMRA, folded or branched DNA
[5] = target: T1, MAZ-GST; test: FRET melting; conditions: 100 mM NaCl, 50 uM Zn acetate, destabilizes G4 at r = 2.5-10, FRET: 50 mM Tris-HCl pH 7.4, 50 mM KCl or 100 mM NaCl, recombinant protein, protein details: GST, label: FAM and TAMRA, folded or branched …
[6] = 50 mM CsCl, both complexes destabilized, single-stranded DNA
[7] = pH 9, interaction inhibited, folded or branched DNA

CGAGGCCGGGGCGGGGCGGGGGCGGGGGCGCGCGGT [hras-2 in Cs+ (unstructured)]
binding result [1, 6]: binds more weakly

TCGGGTTGCGGGCGCAGGGCACGGGCG [hras-1 in Cs+ (unstructured)]
binding result [1, 6]: binds more weakly

TCGGGTTGCGGGCGCAGGGCACGGGCGG [G4-decoy 5]
binding result ([2]; LNA residues differ from decoy 4 (positions lost in text)): binds

CGAGGCCGGGGCGGGGCGGGGGCGGGGGCGCGCGGT (double strand) [duplex hras-2]
binding result [1]: binds
binding result [3]: binds

TCGGGTTGCGGGCGCAGGGCACGGGCG (double strand) [duplex hras-1]
binding result [1]: binds

TCGGGTTGCGGGCGCAGGGCACGGGCG [qhras-1, FRET-labelled]
binding result [4]: no binding

TCGGGTTGCGGGCGCAGGGCACGGGCG [qhras-1 (quadruplex hras-1, H1)]
binding result [1, 7]: binds more weakly
binding result ([3]; binds, weaker than MAZ, folded or branched DNA): binds more weakly

TCGGGTTGCGGGCGCAGGGCACGGGCGG [G4-decoy 4]
binding result ([2]; LNA residues (positions lost in text)): binds

CGAGGCCGGGGCGGGGCGGGGGCGGGGGCGCGCGGT [qhras-2 (quadruplex hras-2, H2)]
Kd ([1]; 50 mM KCl, pH 7.4, poly d(I-C), apparent Kd given for the HRAS quadruplexes together, folded or branched DNA): 1500 nM
binding result [1, 7]: binds more weakly
binding result ([3]; folded or branched DNA): no binding

CGAGGCCGGGGCGGGGCGGGGGCGGGGGCGCGCGGT [qhras-2, FRET-labelled]
binding result [5]: binds
